Measured values as given in the supplement of paper PMC10338343.
± gives the standard deviation. The list shows a part of the results, in another mix than the full data. Many of these values have a large error.

Each sequence was assayed on MIWI (PIWIL1) piRISC loaded with piRNA #1 (30 nt) (assay: pre-steady-state target cleavage rate (min^-1); MIWI and MILI are mouse PIWI proteins and EfPiwi is from a freshwater sponge; tags in brackets are library labels; higher = faster piRNA-guided slicing of the target). Conditions: guide: piRNA #1 5'p-UGAGGUAGUAGGUUGUAUAGUAUCCAGAGG; auxiliary factor: 500 nM mouse GTSF1.
Outline: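 For Cleave-'n-Seq, a transcribed, DNA-blocked target RNA library […] met 1 nM active affinity-purified piRISC with one synthetic guide at 33 °C for 0–8 or 0–960 min in HEPES–potassium acetate buffer, with or without 500 nM GTSF1 partner protein. Uncleaved targets were sequenced and normalised to depth and weakly complementary targets, with three trials pooled and k3 capped at 0.0001 min^-1. A burst-and-steady-state fit supplied the pre-steady-state cleavage rate.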
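Also: 1 nM active piRISC with 0.1 nM target library at 33 °C single turnover.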

| Sequence | pre-steady-state target cleavage rate |
| --- | --- |
| GGAGUGCAUAGUAUACAACCUACUACCUCA | 0.659 ± 0.04 |
| CCUCUGGAUAAUAUACAACCUACUACCUCA | 2.06 ± 0.12 |
| GGAGACCUAUGUAUUCAACCUACAACCUCA | 0.000279 ± 0.0089 |
| CCUCUCGAUACUAAACAACCUACUACCUCA | 2.13 ± 0.14 |
| GGAGACCAUACUAUACAACCUACUACCUUCA | 1.59 ± 0.1 |
| GGAGACCUAUGAUGACAACCUACUACCUCA | 0.00202 ± 0.0041 |
| GCUCUGGAUACUAUCACAACCUACUACCUCA | 1.62 ± 0.12 |
| GGAGACCUAUGAAUACAACCUGCUACCUCA | 0.00136 ± 0.0032 |
| GGAGUGGAUACUAUACCAACCUACUACCUCA | 0.0192 ± 0.0054 |
| GCUCUGGAUACUAUACAACCUUGAUGGAGA [g10:g29:cont:t1A] | 0.00238 ± 0.0048 |
| GCUCCUGGAUACUAUACAACCUACUACCUCA | 2.13 ± 0.11 |
| CCUCUGGAUACUAUACAACGAUGAUGGAGA [g12:g30:cont:t1A] | 0.00319 ± 0.0042 |
| GAUCUGGAUACUAUACAACCUACUACCUCA | 1.91 ± 0.097 |
| GGAGACCUAUGAAUACAUCCUACUACCUGA | 0.000324 ± 0.0048 |
| GGAGACCUAUCUAUACAACCAUACUACCUCA | 0.00119 ± 0.0053 |
| GGUCUGGAUACUAUACAACACUACUACCUCA | 0.00026 ± 0.011 |
| GCUCUGGAUACGAUACAACCUACUACCUCA | 1.7 ± 0.086 |
| CGCUCUGGAUACUAUACAACCUACUACCUCA | 2.27 ± 0.14 |
| GGAGACCUAUGAUUACAACCUUCUACCUCA | 0.00128 ± 0.0027 |
| GGAGACCUAUGUAUACAACCUAGAUCCUCA | 0.000813 ± 0.0038 |

| Sequence | pre-steady-state target cleavage rate |
| --- | --- |
| GCUCUGGAUACUAUAUAACCUACUACCUCA | 1.79 ± 0.1 |
| GGAGACCUAUGAUUACAACCUACUACACUCA | 0.00214 ± 0.0034 |
| GGAGACCUAUGAUAACAUCCUACAACCUCA | 0.000121 ± 0.015 |
| GGACUGGAUACUAUACAACCUACUUCCUGA | 0.000265 ± 0.014 |
| GGAGACCUAUGAUAUGUACGUUCUACCUCA | 0.000125 ± 0.024 |
| GGAGACCUAUGAUUACAACCUACUACCACA | 0.000339 ± 0.0063 |
| CCUCAGGAUUCUAUACAACCUACUACCUCA | 2.24 ± 0.13 |
| GGUCUGGAUACUAUACAACCGUACUACCUCA | 0.00082 ± 0.0079 |
| GGAGACCUAUGAAUACAAGCUACAACCUCA | 0.000326 ± 0.0086 |
| GGAGACCUAUGAUAACAACCUACUACCGUCA | 0.000873 ± 0.0056 |
| GGAGACCAAACUAUACAACCUAGUACCUCA | 0.226 ± 0.033 |
| GGACUGGAUACUAUACAACCUCACUACCUCA | 0.00198 ± 0.0058 |
| GGAGACCUAUCUAUACAACCUUACUACCUCA | 0.000716 ± 0.0067 |
| GGACUGGAUACUAUAGAACCUACUAGCUCA | 0.000656 ± 0.0067 |
| GGAGACCUAUGAAUACUACCUACUACCUCA | 0.000181 ± 0.015 |
| GGAGACCUAUGAAUUCAACCUACUACCUCA | 0.000254 ± 0.011 |
| GGAGACCUAUGAUAUGUACCUACUAGGACA | 0.000124 ± 0.025 |
| GGAGACCUAUGAAUACAACCUACUUACCUCA | 0.00206 ± 0.0032 |
| GCUCUGCAUACUAUACAACCUACUACCACA | 1.98 ± 0.18 |
| GGUCUGGAUACUAUUCAACCUACAACCUCA | 0.28 ± 0.033 |

In another format: results already given
Sequence	pre-steady-state target cleavage rate
GGAGACCUAUGAAUACAACCUGCUACCUCA	0.00136 ± 0.0032
GGAGUGGAUACUAUACCAACCUACUACCUCA	0.0192 ± 0.0054
GCUCUGGAUACUAUACAACCUUGAUGGAGA [g10:g29:cont:t1A]	0.00238 ± 0.0048
